In all, about 360,000 compounds went through this assay and about 780 (0.22%) were called active. This list was built around the results that the source calls inconclusive (neither active nor inactive); the mix of calls is not that of the screen. No stated cut-off is given here; in the data, active means inhibition above about 35% (passing the limit was not always enough); inconclusive means no clear call, values can overlap the other calls.
System: Botulinum neurotoxin type F light chain protease (Clostridium botulinum)
Assay: BoNT/F light chain protease inhibitors, primary screen, biochemical, flow cytometry, MLPCN library (AID 588497); further: plate controls were buffer without enzyme for full effect and enzyme alone for no effect
Conditions: Multiplex microsphere protease cleavage assay, at 10 µM, active compounds read high

SMILES | inhibition
CC(=O)c1cccc(S(=O)(=O)Nc2cc(C(F)(F)F)ccc2N2CCOCC2)c1 | inactive: -2.1%
CCN(CC)C(=O)COc1ccc(S(=O)(=O)N2CCCC2)cc1 | inconclusive: -16.2%
C=CCn1ccc(=NC=C(C#N)C#N)c2ccccc21 | inconclusive: -28.6%
COc1ccc(/C=C/C(=O)NC2CCCCC2C)cc1 (stereo unspecified) | inconclusive: 7.3%
C=CCn1cnc2c(sc3nc(C)cc(C)c32)c1=O | inconclusive: 33.2%
CCNC(=O)NC1(C(=O)Nc2ccc3c(c2)CCC3)CCCCC1 | inconclusive: -8.5%
CCOc1ccc(NC(=O)CCN2C(=O)c3cccc([N+](=O)[O-])c3C2=O)cc1 | inconclusive: 23.2%
Cn1c(Cl)cnc1C(O)(c1ccccc1)c1ccccc1 | inconclusive: 35.6%
COc1ccc(N2CCN(C(=O)CC3NC4CCCCC4NC3=O)CC2)cc1 (stereo unspecified) | inactive: 2.2%
O=C(Cc1c[nH]c2ccccc12)N1CCN(S(=O)(=O)c2cccc(Cl)c2Cl)CC1 | inactive: 2.1%
NC(=O)c1cc2ccncc2c2ccccc12 | inconclusive: -41.1%
COc1cc2c(cc1OC)C(c1ccc(Br)cc1)NC(=O)C2 (stereo unspecified) | inconclusive: 8.8%
CN(C)S(=O)(=O)c1cccn1-c1ncc(C(F)(F)F)cc1Cl | inconclusive: -19%
CCS(=O)(=O)N1CCC(C(=O)Oc2ccccc2Br)CC1 | inconclusive: -8.6%
O=C(CN1CCCC1)N/N=C/c1c(O)ccc2ccccc12 | inconclusive: -2.9%
CSc1nnc(SCC#N)s1 | inconclusive: 34.1%
NC(=O)c1cc[n+](Cc2ccccc2Cl)cc1 | inconclusive: -3.8%
COc1ccc(C(=O)N2CCN(CCNC(=O)C(=O)Nc3ccc(F)cc3)CC2)cc1OC | inactive: -17.1%
COc1ccc(CCNC(=O)CCCCC(=O)NCCc2ccc(OC)cc2)cc1 | inconclusive: 0.6%
CCOC(=O)CNC(=O)CSc1ccc(-c2nc3ccccc3[nH]2)cn1 | inconclusive: -15%
CC(C)(C)c1cc(C(=O)NNC(=O)c2ccc(C(F)(F)F)cc2)no1 | inconclusive: 13.5%
Fc1ccccc1OCCCCn1cncn1 | inconclusive: -75.8%
O=C(Nc1cccc(NC(=O)c2cccc([N+](=O)[O-])c2)n1)c1cccc([N+](=O)[O-])c1 | inconclusive: -8%
CC(C)(CC(=O)O)CC(=O)N1CCN(c2cc(C(F)(F)F)nc3ccccc23)CC1 | inactive: 0.1%
CC(O)c1nc2ccccc2n1Cc1ccccc1 (stereo unspecified) | inconclusive: 20.4%
O=C1c2ccccc2C(=O)N1CCc1ccccc1 | inconclusive: -0.1%

As entered above:
Entry of `CCN(CC)C(=O)COc1ccc(S(=O)(=O)N2CCCC2)cc1` under inhibition: inconclusive: -16.2%
Entry of `CCNC(=O)NC1(C(=O)Nc2ccc3c(c2)CCC3)CCCCC1` under inhibition: inconclusive: -8.5%
